Experimental data reported in US20250257069A1, “JAK INHIBITOR ANALOGS, FORMULATIONS, AND USES THEREOF” (THE REGENTS OF THE UNIVERSITY OF MICHIGAN, priority 2022, published 2025).

Legend:
[1] = system: SET-2 cells; experiment: Anti-proliferative assay in SET-2 cells (CellTiter 96 Aqueous); type: cell-based; conditions: Homo sapiens, 72 h, 3 days
Procedure: (§1) Cell Culture and anti-proliferative assay. Human cell lines HEL 92.1.7 and SET-2 were obtained from American Type Culture Collection (ATCC) and Leibniz Institute DSMZ-German Collection of Microorganisms and Cell Cultures GmbH, respectively. HEL and SET-2 cells were cultured in RMPI 1640 medium (Life Technologies Corporation, New York, USA) supplemented with 10% or 20% fetal bovine serum (FBS, Life Technologies Corporation, New York, USA), respectively. Cells were incubated at 37° C. in a humidified atmosphere of 5% CO2. Cells were seeded into 96-well culture plates at the density of approximately 8000 cells per well and treated with various concentrations of compounds for 3 days in final volumes of 200 μL. Upon end point, cells were treated using CellTiter 96 Aqueous Assay Reagents (Promega Corporation, Madison, USA) according to the provider's instruction. Briefly, MITS and PMS solution were thawed and mixed (20:1, v/v) before use and pipet appropriate amount of the mixed solution into each well of the 96 well assay plates. The plates were incubated for 1-4 hours at 37° C. in a humidified atmosphere of 5% CO2. The absorbance at 490 nm was recorded using CYTATION 5 imaging reader (BioTek, VT, USA). IC50 values were calculated using percentage of growth versus untreated control.

[2] = system: HEL 92.1.7 cells; experiment: Anti-proliferative assay in HEL cells (CellTiter 96 Aqueous); type: cell-based; conditions: Homo sapiens, 72 h, 3 days
Procedure: as §1

## C[C@@H]1CCN(C(=O)CC#N)C[C@@H]1N(C)c1ncnc2[nH]ccc12 [Tofacitinib, reference compound]
[1]
  IC50: ~0.00731 nM
[2]
  IC50: 3690 nM
